This test deals with filamin A (human (endogenous in THP1)), P21333. Nature of the test: co-IP; lysates of cells overexpressing CaSR (50 mM Tris HCl pH 7.4, 150 mM NaCl, 10% glycerol, 0.5% NP-40); 500 ug protein with 2 ug anti-FLNA antibody 4 h at 4 °C, Dynabeads Protein G overnight at 4 °C, washed with ice cold RIPA buffer; immunoblot for CaSR and FLNA. To be noted: remark: other sources report otherwise.

This passage reports binding results from article PMC10558580.

No constants are given. Whether binding was seen depends on the method and setting. Binding seen in cells or lysates may run through a third protein. Some results given as binding are weak or reduced against the parent protein; the word gives no strength.

B1: calcium-sensing receptor, P41180 20-1078 (receptor)
chain: YGPDQRAQKKGDIILGGLFPIHFGVAAKDQDLKSRPESVECIRYNFRGFRWLQAMIFAIEEINSSPALLPNLTLGYRIFDTCNTVSKALEATLSFVAQNKIDSLNLDEFCNCSEHIPSTIAVVGATGSGVSTAVANLLGLFYIPQVSYASSSRLLSNKNQFKSFLRTIPNDEHQATAMADIIEYFRWNWVGTIAADDDYGRPGIEKFREEAEERDICIDFSELISQYSDEEEIQHVVEVIQNSTAKVIVVFSSGPDLEPLIKEIVRRNITGKIWLASEAWASSSLIAMPQYFHVVGGTIGFALKAGQIPGFREFLKKVHPRKSVHNGFAKEFWEETFNCHLQEGAKGPLPVDTFLRGHEESGDRFSNSSTAFRPLCTGDENISSVETPYIDYTHLRISYNVYLAVYSIAHALQDIYTCLPGRGLFTNGSCADIKKVEAWQVLKHLRHLNFTNNMGEQVTFDECGDLVGNYSIINWHLSPEDGSIVFKEVGYYNVYAKKGERLFINEEKILWSGFSREVPFSNCSRDCLAGTRKGIIEGEPTCCFECVECPDGEYSDETDASACNKCPDDFWSNENHTSCIAKEIEFLSWTEPFGIALTLFAVLGIFLTAFVLGVFIKFRNTPIVKATNRELSYLLLFSLLCCFSSSLFFIGEPQDWTCRLRQPAFGISFVLCISCILVKTNRVLLVFEAKIPTSFHRKWWGLNLQFLLVFLCTFMQIVICVIWLYTAPPSSYRNQELEDEIIFITCHEGSLMALGFLIGYTCLLAAICFFFAFKSRKLPENFNEAKFITFSMLIFFIVWISFIPAYASTYGKFVSAVEVIAILAASFGLLACIFFNKIYIILFKPSRNTIEEVRCSTAAHAFKVAARATLRRSNVSRKRSSSLGGSTGSTPSSSISSKSNSEDPFPQPERQKQQQPLALTQQEQQQQPLTLPQQQRSQQQPRCKQKVIFGSGTVTFSLSFDEPQKNAMAHRNSTHQNSLEAQKSSDTLTRHEPLLPLQCGETDLDLTVQETGLQGPVGGDQRPEVEDPEELSPALVVSSSQSFVISGGGSTVTENVVNS
For B1, the binding result is “binds”.
